The other results are listed elsewhere or left out.

The target in this assay is T1, OsSMF1 (Oryza sativa, UniProt Q6ZLB0 1-436).
T1 sequence: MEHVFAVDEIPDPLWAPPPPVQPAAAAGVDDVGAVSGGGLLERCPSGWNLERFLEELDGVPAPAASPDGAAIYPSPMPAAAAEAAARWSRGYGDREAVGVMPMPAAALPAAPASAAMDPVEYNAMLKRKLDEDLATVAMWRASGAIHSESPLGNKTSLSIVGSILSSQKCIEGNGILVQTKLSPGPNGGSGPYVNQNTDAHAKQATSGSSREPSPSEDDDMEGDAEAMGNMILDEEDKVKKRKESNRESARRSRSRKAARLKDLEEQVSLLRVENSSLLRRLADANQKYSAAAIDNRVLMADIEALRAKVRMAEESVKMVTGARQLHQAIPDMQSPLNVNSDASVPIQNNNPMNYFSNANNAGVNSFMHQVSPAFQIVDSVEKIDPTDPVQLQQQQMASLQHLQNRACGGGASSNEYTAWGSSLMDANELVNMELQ
The experiment in a line: protein-binding microarray (RPBM); PBS, 2% BSA, 51.3 ng/ul salmon testes DNA, 50 uM zinc acetate, 200 nM TF, 25 C, 1 h; high values mean tight binding. The settings on record: protein: recombinant; tags: N-terminal polyhistidine and DsRed monomer fusion (pET32a); chain copies: 2; label: CyDye5-dUTP incorporated in the synthesized complementary strand; 3' TTTTT single-stranded linker to array surface; dsDNA, one strand shown. The procedure, abridged:
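For the binding signal, per-feature fluorescence intensity was read in arbitrary units on an Axon 4000B scanner. Before scanning, a 2% BSA-blocked custom Agilent array made double-stranded with Cy5-dUTP was washed after 1 h at 25 °C with 200 nM protein and 50 µM zinc acetate. The proteins were Ni–NTA-purified transcription factors with N-terminal polyhistidine and DsRed fusions, expressed in E. coli BL21-CodonPlus.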
As to “GTCTTCCTCTGGCCCATGCTGCAGAACCACGTCCCCGCCGCGGAGTCACCTAGTGCAG”, the binding signal was 4010 fluorescence intensity (a.u.). The same measure for “AGTTGTTTCTTTCCTAAATTATTAGAGCCTGGATTATTGGCGGAGTCACCTAGTGCAG”: 3990 fluorescence intensity (a.u.); for “CTCCTCAACAACACTCTCAGGTCAATCTCGGCCGACCCAACGGAGTCACCTAGTGCAG”: 21200 fluorescence intensity (a.u.); for “TTATCTTCGCAGGATAGATAACCCGCTGACTCGGATTATACGGAGTCACCTAGTGCAG”: 8500 fluorescence intensity (a.u.). For “CCACCACGCGTCAGTTTAGCATGCTACACGTATGCCCTTCCGGAGTCACCTAGTGCAG” the value was 7620 fluorescence intensity (a.u.). “TGAAACCCACGCCACCTCATCTCTTCCCTCTTATTTCCCCCGGAGTCACCTAGTGCAG”: the binding signal is 9020 fluorescence intensity (a.u.). Regarding “GCTGTAATCCTCGCTGTCACTGGACCGTGGTTTTGGCTGCCGGAGTCACCTAGTGCAG”, the binding signal is 3640 fluorescence intensity (a.u.). The same measure for “CGCTCCCGGCCATGTCGACAGCTGAGCTGACAAAAGGCGCCGGAGTCACCTAGTGCAG”: 3770 fluorescence intensity (a.u.). On to “AGAGAGAAGGGGAGGGTGAGGTGGACAGGAGAAGATAAGGCGGAGTCACCTAGTGCAG”, for which the binding signal was 3280 fluorescence intensity (a.u.). For “GCGCCACATAATTGTAGTCATCCTGCCGGTAACCATTTCGCGGAGTCACCTAGTGCAG” the value was 3690 fluorescence intensity (a.u.); for “ATGACTTTTGCAGCCCTGTTGAAGTCCATGTCATTTGCAACGGAGTCACCTAGTGCAG”, 4590 fluorescence intensity (a.u.); for “GTACTACCGCCGTGGCCATATCGCTCATTCATGATTCATCCGGAGTCACCTAGTGCAG”, 6390 fluorescence intensity (a.u.). As to “ATTTCGCACAGATTTCGATTTGTGGCTGACACCATCCTATCGGAGTCACCTAGTGCAG”, the binding signal was 5010 fluorescence intensity (a.u.). For “CAAAAGTGGTCCTTGTGTTTGTGTGGCATTAGGATTAGGTCGGAGTCACCTAGTGCAG” the value was 3210 fluorescence intensity (a.u.); for “GCTAGCTCCCCTCCGCGTGTGTGTTTATAGGCTTATAGCTCGGAGTCACCTAGTGCAG”, 3950 fluorescence intensity (a.u.). Turning to “CCTTGATGACATGCTCTGACAGCTCATGAGTTCTACTGGACGGAGTCACCTAGTGCAG”, the binding signal is 6860 fluorescence intensity (a.u.). For “CGTGCTCCAGATTTATGAATAAAATATGCCGAATGCCGTACGGAGTCACCTAGTGCAG”, the binding signal is 28100 fluorescence intensity (a.u.). The same measure for “TCCACTTGTCCATGGGCCCCACTTGTCAGTGACACTTGTCCGGAGTCACCTAGTGCAG”: 3140 fluorescence intensity (a.u.).

Take “ATCTACTACACACATGACACATTCCCATCTTTCCAATGTCCGGAGTCACCTAGTGCAG”: the binding signal is 3360 fluorescence intensity (a.u.). For “CAAGGAAGAATATGCCACCTCCACGGAGGCCGGCGGCGGCCGGAGTCACCTAGTGCAG” the value was 3710 fluorescence intensity (a.u.). The same measure for “AAGTAGGAGTCATTGAGTATACACCTAACCATTCAATCCACGGAGTCACCTAGTGCAG”: 3360 fluorescence intensity (a.u.); for “CCATTCAAAAGTGGGCTACGTGGCCTTATATGTTGCTTGCCGGAGTCACCTAGTGCAG”: 5470 fluorescence intensity (a.u.); for “CTGTTAGACACCCGCCTCCACGTCACGGGAGCGCATCTCCCGGAGTCACCTAGTGCAG”: 15700 fluorescence intensity (a.u.). With “GTCGCCGGTCGTCATCAGGTCACTCTACGCCGGCTGATCCCGGAGTCACCTAGTGCAG”, the binding signal is 5160 fluorescence intensity (a.u.). For “TGGCCAAATAACTCTGTGCTGGCGTGGCTAAACGACGCTCCGGAGTCACCTAGTGCAG” the value was 8080 fluorescence intensity (a.u.); for “CAGCTACTACATGTTTTCTCCGTCCAGTCATAGATTTGATCGGAGTCACCTAGTGCAG”, 5380 fluorescence intensity (a.u.). Take “GGTGGTGGTGGTGGTGGTGGTGGTGTAGGAGGAGGAGGAGCGGAGTCACCTAGTGCAG”: the binding signal is 5140 fluorescence intensity (a.u.). For “CAATAGCGACTGCCATAATTCAACGAATGGGCATGGTTATCGGAGTCACCTAGTGCAG” the value was 22300 fluorescence intensity (a.u.); for “CTTGATGGTGTTCCATGCATCTTGACTTCTTGAGAAGCTACGGAGTCACCTAGTGCAG”, 3410 fluorescence intensity (a.u.); for “CTGTAACTTTCAAAAGATTCATCTGCAAAGTACGTGTCACCGGAGTCACCTAGTGCAG”, 5880 fluorescence intensity (a.u.). For the sequence “ATCCTGCCATCGTCGGGAAGCAAGGATGGTCGGGGAAGACCGGAGTCACCTAGTGCAG”, the binding signal is 4970 fluorescence intensity (a.u.). For “TGGGCCCACCACAAACCCGCAGGCGCCGCATCTTCTCTCTCGGAGTCACCTAGTGCAG” the value was 3270 fluorescence intensity (a.u.); for “AGTTTCGGAAGAAATCTGCCTCGTCCGATTCTGTGGCCATCGGAGTCACCTAGTGCAG”, 30700 fluorescence intensity (a.u.). The same measure for “CGGTACGCGCCGCCGCCGCCGCCGCCACCGCCACCGCCGCCGGAGTCACCTAGTGCAG”: 3570 fluorescence intensity (a.u.); for “AAAAGGAGGTTTAACCTGTCACCTGTCAGTGCTAGCTCTGCGGAGTCACCTAGTGCAG”: 4570 fluorescence intensity (a.u.). The same measure for “GGGTTGTGGTTGTTGTACGTTGTTGTTGACGGCGATGGTTCGGAGTCACCTAGTGCAG”: 3460 fluorescence intensity (a.u.); for “CATTTTCCAGGCCAAGCCAGCTCACATCACCAGAGCAACACGGAGTCACCTAGTGCAG”: 3720 fluorescence intensity (a.u.). Consider “CCGCCGTGAAGCACACCACCACCAACCCCATCGCTCCCTCCGGAGTCACCTAGTGCAG”, for which the binding signal is 64500 fluorescence intensity (a.u.). Turning to “AGAGCATGTCTATGGTGACAGTTATGCCTAACAGAACACACGGAGTCACCTAGTGCAG”, the binding signal was 32700 fluorescence intensity (a.u.).

Regarding “TACATCTCGTGTGTGGGACCCGGAGAAAGCGGTTGGTGGACGGAGTCACCTAGTGCAG”, the binding signal is 27000 fluorescence intensity (a.u.). The same measure for “GTGGAGGCGATCCAGAGCGGGATAGATGCGAACGCTGTTCCGGAGTCACCTAGTGCAG”: 29800 fluorescence intensity (a.u.).

Take “TAGGATTCGATCCCACGTCCCGGTTCTTTCGCGTCCATCCCGGAGTCACCTAGTGCAG”: the binding signal was 4560 fluorescence intensity (a.u.).

(Values after publication PMC7819943, “Rice protein-binding microarrays: a tool to detect cis-acting elements near promoter regions in rice”.)
